# Library screen at single concentrations

Sequences of proteins named here, by UniProt entry; tags and fusion partners are left off. Residues count along the entry.
UniProt Q8IDJ8, 1-583: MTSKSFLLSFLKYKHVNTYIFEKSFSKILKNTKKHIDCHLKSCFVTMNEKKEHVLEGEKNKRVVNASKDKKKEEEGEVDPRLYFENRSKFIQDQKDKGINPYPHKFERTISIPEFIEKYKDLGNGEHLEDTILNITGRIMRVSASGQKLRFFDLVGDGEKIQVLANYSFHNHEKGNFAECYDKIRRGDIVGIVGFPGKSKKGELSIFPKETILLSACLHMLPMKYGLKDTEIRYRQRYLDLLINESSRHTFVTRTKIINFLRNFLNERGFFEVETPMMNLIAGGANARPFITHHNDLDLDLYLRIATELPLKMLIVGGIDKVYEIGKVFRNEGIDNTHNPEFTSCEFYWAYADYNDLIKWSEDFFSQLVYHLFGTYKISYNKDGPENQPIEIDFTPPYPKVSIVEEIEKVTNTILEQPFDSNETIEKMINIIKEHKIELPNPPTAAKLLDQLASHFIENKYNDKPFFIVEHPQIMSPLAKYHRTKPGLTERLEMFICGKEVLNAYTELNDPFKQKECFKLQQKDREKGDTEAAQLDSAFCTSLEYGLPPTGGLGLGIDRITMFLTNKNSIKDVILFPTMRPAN
UniProt Q4DA54, 1-478: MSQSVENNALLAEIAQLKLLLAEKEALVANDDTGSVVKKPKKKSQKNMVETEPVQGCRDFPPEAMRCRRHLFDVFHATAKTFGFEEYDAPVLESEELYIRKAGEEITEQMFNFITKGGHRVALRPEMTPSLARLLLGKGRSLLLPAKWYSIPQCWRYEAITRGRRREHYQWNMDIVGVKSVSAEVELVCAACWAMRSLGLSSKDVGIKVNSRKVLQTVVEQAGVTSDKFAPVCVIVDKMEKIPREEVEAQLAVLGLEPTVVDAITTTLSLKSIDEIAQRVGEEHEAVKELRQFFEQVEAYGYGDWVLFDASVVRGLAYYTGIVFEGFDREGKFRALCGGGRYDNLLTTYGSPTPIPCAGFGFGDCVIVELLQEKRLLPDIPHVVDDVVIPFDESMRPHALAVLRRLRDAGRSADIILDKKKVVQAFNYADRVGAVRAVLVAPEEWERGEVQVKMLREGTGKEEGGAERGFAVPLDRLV
UniProt I6X8D2, whole entry: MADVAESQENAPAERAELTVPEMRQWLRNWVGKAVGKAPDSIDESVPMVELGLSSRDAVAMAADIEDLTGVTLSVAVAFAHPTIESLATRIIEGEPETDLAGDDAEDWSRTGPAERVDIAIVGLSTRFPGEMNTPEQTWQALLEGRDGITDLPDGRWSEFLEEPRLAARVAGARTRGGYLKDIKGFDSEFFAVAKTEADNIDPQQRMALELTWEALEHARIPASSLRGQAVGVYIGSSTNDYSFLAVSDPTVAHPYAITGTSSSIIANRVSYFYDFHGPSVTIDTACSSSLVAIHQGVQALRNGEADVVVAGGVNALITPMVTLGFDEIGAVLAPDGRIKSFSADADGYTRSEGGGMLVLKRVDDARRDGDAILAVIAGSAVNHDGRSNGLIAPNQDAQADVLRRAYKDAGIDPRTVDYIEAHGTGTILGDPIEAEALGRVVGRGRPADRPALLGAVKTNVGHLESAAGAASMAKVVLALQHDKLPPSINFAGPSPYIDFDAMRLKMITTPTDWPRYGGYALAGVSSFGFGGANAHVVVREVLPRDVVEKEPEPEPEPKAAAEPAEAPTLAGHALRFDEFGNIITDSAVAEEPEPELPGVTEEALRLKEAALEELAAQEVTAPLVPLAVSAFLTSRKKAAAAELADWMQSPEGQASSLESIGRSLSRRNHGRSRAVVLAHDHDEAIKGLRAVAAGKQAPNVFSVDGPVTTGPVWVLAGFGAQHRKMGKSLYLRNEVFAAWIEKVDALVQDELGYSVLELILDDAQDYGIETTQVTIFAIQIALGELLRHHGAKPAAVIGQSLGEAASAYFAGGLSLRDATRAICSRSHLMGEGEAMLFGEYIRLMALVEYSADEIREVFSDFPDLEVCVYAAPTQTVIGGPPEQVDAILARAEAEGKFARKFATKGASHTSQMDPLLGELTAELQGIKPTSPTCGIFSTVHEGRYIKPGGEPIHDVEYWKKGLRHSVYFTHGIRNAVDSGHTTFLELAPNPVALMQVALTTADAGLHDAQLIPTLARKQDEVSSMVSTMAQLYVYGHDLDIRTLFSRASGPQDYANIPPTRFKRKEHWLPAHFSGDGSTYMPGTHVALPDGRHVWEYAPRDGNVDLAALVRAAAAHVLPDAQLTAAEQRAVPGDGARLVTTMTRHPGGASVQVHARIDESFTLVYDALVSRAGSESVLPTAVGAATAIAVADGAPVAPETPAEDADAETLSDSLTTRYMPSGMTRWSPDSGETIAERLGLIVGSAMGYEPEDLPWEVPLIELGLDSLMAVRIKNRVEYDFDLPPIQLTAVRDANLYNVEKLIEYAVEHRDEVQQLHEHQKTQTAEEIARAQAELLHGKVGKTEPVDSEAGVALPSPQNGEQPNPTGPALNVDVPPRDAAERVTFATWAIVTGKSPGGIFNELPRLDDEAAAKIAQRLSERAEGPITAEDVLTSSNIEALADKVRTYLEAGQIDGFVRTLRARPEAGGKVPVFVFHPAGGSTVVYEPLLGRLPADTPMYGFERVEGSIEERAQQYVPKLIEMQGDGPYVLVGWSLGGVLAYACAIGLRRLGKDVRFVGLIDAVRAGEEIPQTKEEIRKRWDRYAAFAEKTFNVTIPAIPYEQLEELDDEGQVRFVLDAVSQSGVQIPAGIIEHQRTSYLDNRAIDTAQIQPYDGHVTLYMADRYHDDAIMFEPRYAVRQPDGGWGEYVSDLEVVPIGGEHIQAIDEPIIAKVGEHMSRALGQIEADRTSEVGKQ

PfKRS1: 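Enzyme assay of the cytosolic lysyl-tRNA synthetase in 384-well plates, read by luminescence. Target: Lysine-tRNA ligase, Plasmodium falciparum 3D7 (UniProt Q8IDJ8). Compounds at 30 µM. Direction is inferred from only a few compounds that gave an IC50; most scored high, so higher reads as stronger inhibition. About 69,000 compounds were tested under these conditions; 0.071% (about 49) showed 50% or more at least once.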
TcHisRS: 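Histidine-tRNA ligase, Trypanosoma cruzi CL Brener (UniProt Q4DA54). Enzyme assay of histidyl-tRNA synthetase; the read-out is not stated. Compounds at 30 µM. The record gives no direction; compounds that gave an IC50 in retests scored well above the rest, so higher reads as stronger inhibition. Of about 69,000 compounds tested this way, about 31 (0.045%) reached 50% or more in at least one test.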
Pks13 thioesterase: 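Polyketide synthase Pks13, Mycobacterium tuberculosis (UniProt I6X8D2). Enzyme assay of the thioesterase domain of polyketide synthase 13; the read-out is not stated. Tested at 30 µM. Higher reads as stronger inhibition (inferred from which compounds were picked for retests). About 67,000 compounds were tested under these conditions; 0.46% (about 300) showed 50% or more at least once.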

The filed quantity is “Percent Effect” (%). How 0% and 100% were set is not recorded. Most values in the screen are low, and negative values occur. This is an unselected part of the compounds tested. A dash means the value is not listed here; it may have been measured.

| compound | PfKRS1 | TcHisRS | Pks13 thioesterase |
|---|---|---|---|
| `CS(=O)(=O)N1Cc2nccn2CC(CN2CCCC2=O)C1` (stereo unspecified) | 1.663 | 3.226 | -33.39 |
| `N#Cc1ccc(CN2CCNC(=O)C2c2cccs2)cc1` (stereo unspecified) | 9.397 | 8.808 | -25.1 |
| `CN(Cc1cccs1)C1CCC[C@@H]2CN(C(=O)c3cnccn3)C[C@H]12` (stereo partly specified) | 11.27 | 1.266 | -1.781 |
| `Nc1cc2c(nn1)CCN(C(=O)Cc1ccc3c(c1)CCCC3)C2` | 8.839 | 27.59 | - |
| `OC[C@H]1CN(C2Cc3ccccc3C2)C[C@H]1CN1CCC(O)CC1` | 7.31 | 2.051 | -6.698 |
| `CNC(=O)c1ccc(=O)n(Cc2csc(C(C)(C)C)n2)c1` | 3.772 | 6.494 | -43.1 |
| `Cn1cnnc1C1CCN(C(=O)CCCOc2ccccc2F)CC1` | 4.579 | 2.29 | -9.692 |
| `Cc1cccnc1N1CC2(CCN(Cc3cccnc3)C2)C1` | -1.771 | 3.883 | - |
| `Cc1noc(C)c1CCC(=O)N1CCCN(Cc2cscn2)CC1` | -1.928 | 4.183 | -3.807 |
| `COc1cc(N2C[C@H]3OCC[C@H]3[C@H](C(=O)N3CCCC3)C2)ncn1` | -3.907 | 3.509 | -1.715 |
| `Cc1nn(C)c(C)c1CCC(=O)NCC1(C(N)=O)CCOCC1` | -0.6213 | 11.06 | 2.445 |
| `O=C(c1ccc(Cl)cc1)N1CCC2(CC1)C(=O)Nc1ccccc12` | -3.567 | 3.261 | 8.742 |
| `Cn1c(=O)n(C)c2nc(Br)c(CC(=O)c3ccccc3)n2c1=O` | 1.808 | 2.97 | -12.28 |
| `Cc1cc(CN(C)C(=O)NC2CCCC2)no1` | 3.48 | -1.681 | -13.44 |
| `COc1cc(-n2cccc2)c(Cl)cc1C(N)=O` | 0.06833 | 4.972 | -28.79 |
| `COc1cccc(CC(=O)N2CCC(NCc3c[nH]nc3C)CC2)c1` | -2.034 | 8.455 | -18.75 |
| `CC(=O)Nc1cc(-c2cccc(F)c2F)n[nH]1` | 1.643 | 4.04 | -11.83 |
| `CCCS(=O)(=O)N1CCN(C(=O)CO)CC1` | -0.9099 | 3.867 | -23.74 |
| `COc1cc(CNC2CCc3nc(C)nn3C2)cc2c1OCCO2` (stereo unspecified) | 4.165 | 0 | -8.076 |
| `O=C1CC(NS(=O)(=O)c2ccc3ccccc3c2)CN1` (stereo unspecified) | 1.803 | 2.513 | 0.09128 |
| `CC(OCC1CC1)C(=O)N1CCCN(c2nc3ccccc3[nH]2)CC1` (stereo unspecified) | 4.552 | 6.349 | -1.44 |
| `Cc1cc(C(=O)N2CCN(c3nc4c(C(C)C)cccc4s3)CC2)no1` | 3.259 | 10 | - |
| `CC(O)CN1CCN(C(=O)c2ccc(N3CCCC3)nn2)CC1` (stereo unspecified) | 0.8858 | 5.764 | 5.511 |
| `CC(=O)N1CC2(CCN(c3nccc4ccccc34)CC2)CC1C(=O)O` (stereo unspecified) | 3.097 | 10.4 | -1.18 |
| `Cc1nc(CN2C[C@@H]3CN(C(=O)C4(C#N)CC4)C[C@@H]3C2=O)cs1` | 4.273 | 8.867 | -25.94 |
| `c1cnc(N2CCCC3(CCN(CC4CC4)C3)C2)nc1` (stereo unspecified) | 0.5109 | 7.882 | -9.807 |
| `CCc1cc(=O)n(CC(=O)NCC2CCCO2)c(-c2cccc(F)c2)n1` (stereo unspecified) | 3.717 | 1.754 | -18.71 |
| `O=C(CCc1cc2n(n1)CCCNC2)NCCCSC1CCCCC1` | 3.818 | 3.004 | 4.086 |
| `COCCC1(CNC(=O)NCC2CN(C)CCN2C)CCC1` (stereo unspecified) | 3.354 | 1.571 | -23.6 |
| `Cc1nc(NCC2CC2)nc2c1COCC21CCN(S(=O)(=O)C2CC2)C1` (stereo unspecified) | 1.209 | 3.922 | -8.61 |
| `CN1CCC(c2nnc3n2CCN(S(=O)(=O)c2ccccc2)C3)CC1` | 1.694 | 3.448 | 1.853 |
| `Cc1nn(C)c2c(=O)n(C)c(NCC3CCCO3)nc12` (stereo unspecified) | -1.966 | 8.247 | - |
| `CCNC(=O)c1nnn(Cc2ccccc2)c1OC` | -3.977 | -1.639 | -4.018 |
| `Clc1snnc1CN1CCCCC1Cn1cccn1` (stereo unspecified) | 0.171 | 4 | -34.04 |
| `c1ccc(N2CCc3ncnc(C4CC4)c3CC2)nc1` | 9.325 | 14.84 | -6.47 |
| `c1cnc(N2CCC3(CN(CC4CCOC4)C3)C2)nc1` (stereo unspecified) | 3.097 | 10.4 | 6.126 |
| `O=C(c1ccccn1)N1CCN(c2cnnc(N3CCCC3)c2)CC1` | 2.202 | 6.061 | -7.35 |
| `c1coc(CN2CCc3onc(Cn4cccc4)c3C2)c1` | -2.183 | 3.448 | -23.21 |
| `Cc1noc(C)c1-c1ccc(C2CCCN2C(=O)c2cnn(C)c2)nc1` (stereo unspecified) | 1.544 | 7.463 | -10.83 |
| `O=C(NCC1CC1)C1=NOC2(CCN(Cc3ccsc3)C2)C1` (stereo unspecified) | 4.285 | 0.4975 | -34.01 |
| `COC(=O)c1ccc(CNCc2ccn(C)n2)cc1` | 1.527 | 1.156 | -16.73 |
| `Cc1nc(C)n(CC2CCCN(CC(=O)Nc3cc(C)on3)C2)n1` (stereo unspecified) | 0.7738 | 4.118 | -24.71 |
| `O=C(NCc1ccccc1)N1CCC2(CC(=O)N(c3ccccc3)C2)C1` (stereo unspecified) | 2.662 | 2.404 | -16.44 |
| `CO[C@H]1CN(C(=O)OC(C)(C)C)CC1NCc1ccn(C)c1` (stereo partly specified) | 1.309 | 0.5848 | -30.49 |
| `COc1cccc(CN(C)CC2=Nc3ccccc3S(=O)(=O)N2)c1` | 10.29 | 10 | -16.92 |
| `CCNC(=O)C1(Cc2ccc(-c3ccccc3)cc2)CCCNC1` (stereo unspecified) | -0.04577 | 8.647 | -9.791 |
| `O=C(c1nsc(Cl)c1Cl)N1CCc2nc3sccc3c(=O)n2CC1` | 0.4406 | 6.084 | 9.652 |
| `NC(=O)CN1C(=O)CO[C@H]2CN(Cc3ccc(C(F)(F)F)cc3)C[C@H]21` | 5.176 | 4.478 | -11.69 |
| `CC(C)Cc1ncc2c(n1)CN(c1cc(N)nc(N)n1)C2` | -1.699 | 9.278 | -17.75 |
| `O=C(Nc1ccc(Cl)cc1)c1nn(C2CCS(=O)(=O)C2)c2c1CCCC2` (stereo unspecified) | 2.974 | 0 | -19.18 |
| `CCN1C(=O)C2(CCOCC2)c2cc(NC(=O)c3cc(C)n[nH]3)ccc21` | 4.194 | 4.95 | - |
| `CSCCC1CC(=O)Nc2cc(O)c(C)cc21` (stereo unspecified) | 1.504 | 9.091 | -36.77 |
| `O=C1NC[C@]2(CC[C@@H](C(=O)N3CCC(O)CC3)CC2)Oc2ccccc21` | 3.084 | 3.802 | 8.966 |
| `Cc1cnc(C(=O)NCC2Cc3ccccc3O2)cn1` (stereo unspecified) | 8.048 | 2.463 | -15.56 |
| `CC(C)N(C)C(=O)C1=NOC2(CCN(C(=O)c3ccccn3)C2)C1` (stereo unspecified) | 2.138 | 2.479 | -12.69 |
| `COc1ncc(-c2c(C#N)c(N)nc3c2CCc2[nH]ccc2-3)cn1` | 16.21 | 18.92 | 39.46 |
| `CCc1nnsc1C(=O)NCCc1nnc2n1CCC2` | 4.515 | 5.319 | 1.197 |
| `CCN(CC)c1ccc(CNC(=O)c2ccccn2)cn1` | 0.3754 | 3.448 | -7.147 |
| `CC(=O)N(Cc1noc(C)n1)C1CCN(Cc2ccccn2)C1` (stereo unspecified) | 0.2814 | 5.983 | 1.079 |
| `CS(=O)(=O)NC[C@]12COC[C@H]1CN(C(=O)c1ccncn1)C2` | -0.9237 | 4.301 | -5.6 |
| `Cc1noc(C)c1CN(C)Cc1cnc(N2CCOCC2)nc1` | -0.4532 | 5.028 | 12.43 |
| `O=C(NCC(=O)N1CCc2ccccc2C1)c1cnccn1` | 1.397 | 6.25 | -25.52 |
| `Cc1n[nH]c(C2CN(C(=O)Cn3ccccc3=O)CCO2)n1` (stereo unspecified) | -3.678 | 4.135 | -7.911 |
| `Cc1nnc(CN(Cc2ccc(Cl)c(Cl)c2)C(C)C)o1` | 4.95 | 2.89 | 8.324 |
| `CCc1cc(CN(C)C(=O)CN2CC3(CCNCC3)OC2=O)on1` | 2.157 | 1.299 | -18.7 |
| `Cc1cc(Oc2ccccc2C)nc(C2CCCN2)n1` (stereo unspecified) | 0.4292 | 6.202 | 5.113 |
| `Cc1c(CNC2CCN(c3ccccc3OC(F)F)C2)cnn1C` (stereo unspecified) | 4.796 | 2.128 | -10.23 |
| `N#Cc1cccc(N2CCCC3(C2)CN(c2ncc(F)cn2)CCO3)n1` (stereo unspecified) | 10.54 | 0 | 12.64 |
| `Cc1ccc(N2CCN(C(=O)[C@@H]3CCC(=O)N3)CC2=O)cc1` | -3.496 | 9.901 | 0.7525 |
| `Cc1cc(C(F)F)nn1C(C)C(=O)NCc1nccn1C` (stereo unspecified) | 1.259 | 8.333 | 2.003 |

The first 7 entries again:

| compound | PfKRS1 | TcHisRS | Pks13 thioesterase |
|---|---|---|---|
| `CS(=O)(=O)N1Cc2nccn2CC(CN2CCCC2=O)C1` (stereo unspecified) | 1.663 | 3.226 | -33.39 |
| `N#Cc1ccc(CN2CCNC(=O)C2c2cccs2)cc1` (stereo unspecified) | 9.397 | 8.808 | -25.1 |
| `CN(Cc1cccs1)C1CCC[C@@H]2CN(C(=O)c3cnccn3)C[C@H]12` (stereo partly specified) | 11.27 | 1.266 | -1.781 |
| `Nc1cc2c(nn1)CCN(C(=O)Cc1ccc3c(c1)CCCC3)C2` | 8.839 | 27.59 | - |
| `OC[C@H]1CN(C2Cc3ccccc3C2)C[C@H]1CN1CCC(O)CC1` | 7.31 | 2.051 | -6.698 |
| `CNC(=O)c1ccc(=O)n(Cc2csc(C(C)(C)C)n2)c1` | 3.772 | 6.494 | -43.1 |
| `Cn1cnnc1C1CCN(C(=O)CCCOc2ccccc2F)CC1` | 4.579 | 2.29 | -9.692 |

The values are deposited in ChEMBL (CHEMBL3988442, “University of Dundee, Small-Polar-MMV Screening Library” (2021)).